Laboratory results as given in paper PMC2994644.
Results are given in words; binding and its absence hold for the method and conditions named. Binding seen in cells or lysates may run through a third protein. Some entries that bind do so weakly or less than the wild type.

Protein sequences, listed by entry. Tags and fused reporters are not part of them. Lines headed by an entry give the natural chain unless they say otherwise; changes in a name come on top. Residues count along the entry.
GST-DSG2 ICS wild-type fusion protein fragment, bacterially expressed (amino acids 635-842 of human desmoglein-2) (Q14126, residues 635-842): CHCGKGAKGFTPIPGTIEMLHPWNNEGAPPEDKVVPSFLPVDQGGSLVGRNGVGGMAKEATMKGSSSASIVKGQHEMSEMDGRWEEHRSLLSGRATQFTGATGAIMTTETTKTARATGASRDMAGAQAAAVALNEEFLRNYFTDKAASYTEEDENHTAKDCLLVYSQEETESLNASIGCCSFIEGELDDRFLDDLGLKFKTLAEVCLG

Key:
Test in all cases: pull-down; GST pulldown: bacterially expressed, purified GST fusion protein as bait, rat heart lysate as source of PG and PKP2; detection by blot; only the target purified
[1] = biological target: GST-DSG2 ICS C813R fusion protein fragment, bacterially expressed (human) (UniProt Q14126)
[2] = biological target: GST-DSG2 ICS wild-type fusion protein fragment, bacterially expressed (amino acids 635-842 of human desmoglein-2) (human) (UniProt Q14126)
[3] = biological target: GST-DSG2 ICS G812S fusion protein fragment, bacterially expressed (human) (UniProt Q14126)
[4] = biological target: GST-DSG2 ICS G812C fusion protein fragment, bacterially expressed (human) (UniProt Q14126)

Measured: binding

B1: plakoglobin from rat heart lysate (protein, UniProt Q6P0K8 1-745)
chain: MEVMNLIEQPIKVTEWQQTYTYDSGIHSGVNTCVPSVSSKGLLDEDDTCGRQYTLKKTTTYTQGVPQSQGDLEYQMSTTARAKRVREAMCPGVSGEDSSLLLATQVEGQTTNLQRLAEPSQLLKSAIVHLINYQDDAELATRALPELTKLLNDEDPVVVTKAAMIVNQLSKKEASRRALMGSPQLVAAVVRTMQNTSDLDTARCTTSILHNLSHHREGLLAIFKSGGIPALVRMLSSPVESVLFYAITTLHNLLLYQEGAKMAVRLADGLQKMVPLLNKNNPKFLAITTDCLQLLAYGNQESKLIILANGGPQGLVQIMRNYSYEKLLWTTSRVLKVLSVCPSNKPAIVEAGGMQALGKHLTSNSPRLVQNCLWTLRNLSDVATKQEGLENVLKILVNQLSVDDVNVLTCATGTLSNLTCNNSKNKTLVTQNSGVEALIHAILRAGDKDDITEPAVCALRHLTSRHPEAEMAQNSVRLNYGIPAIVKLLNQPNQWPLVKATIGLIRNLALCPANHAPLQEAAVIPRLVQLLVKAHQDAQRHVAAGTQQPYTDGVRMEEIVEGCTGALHILARDPMNRMEIFRLNTIPLFVQLLYSSVENIQRVAAGVLCELAQDKEAADAIDAEGASAPLMELLHSRNEGTATYAAAVLFRISEDKNPDYRKRVSVELTNSLFKHDPAAWEAAQSMIPINEPYADDMDATYRPMYSSDVPLDPLDMHMDMDGDYPMDTYSDGLRPPYPAADHMLA
binds: [1] | [2] | [3] | [4]

B2: plakophilin-2 from rat heart lysate (protein, UniProt F1M7L9 1-814)
chain: MAIPGSLGECGYIRTVLGQQILGHLDSSSLALPSEARLRLAGSSGRGDPVARSQRIQEQVQQTLARRGRSSVVGGNLHRTSSVPEYVYKLHLVENDFVGRQSPAARDYDMLKVGLSGWRDGSTLKVPCTSIKPHREKKTWIEALREGLEHTTDHTDCPAHYVYSHYYFNSKKSNILVFQHIKDKSLQRNAIILLSPEHCTCQHVRLIPSSVLPSLFNQLQLSPELYFSNMGTLYMTSIKGTLCIQLLKGKLPAKHQANFVTMAERRVYTLLLSSTTSSETSFRRTGDTLPSVTSGQSRVHGLHFHHVICDCLSRNADLEMTLERAVNMLDADHVPLSKISAAATFIQHESFQKSEARKRVNQLQGIPKLLQLLKVQNEDVQRAVCGALRNLVFEDNDNKVTVVLGKVNITKREGGGQAAGYMKETWKLANKNPVFLGLLWNLSSSDKLKHLMITEALLTLTESVIIPFSGWPEGDYPKANGLLDFDIFYNVTGCLRNMSSAGPDGRKVMRRCDGLIDSLVHYVRGTIADYQPDDKATENCVCILHNLSYQLEAELPEKYSQSIYMQNRNIQTNSNKSIGCFGSRSRKVKEQYQDTPMPEERSSPRGIEWLWHSIVIRMYLSLIAKSSRNYTQEASLGALQNLTAGSGPIPTSVARMVVQKENGLQHTRKMLHVGDPSVKKTAVSLLRNLSRNLSLQNEIAKETLPDLVSIIPDTVPSTDLLIETTASACYTLNNLMQNSYQNARDLLNTGGLQKIMTISIGEGYAPNKASKAASVLLYSLWAHTELHNAYKKAQFKKTDFVNSRTAKASHSLKD
binds: [1] | [3] | [4]
